Reference: PubChem BioAssay AID1259308 (NCATS, 2017)

Purpose: 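Genes whose loss raises luciferase production in HEK293 cells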 (primary screen)
Cells: human HEK293 embryonic kidney cells stably expressing firefly luciferase (HEK-CMV-Luc2-Hygro)
Reagents: single siRNA against human genes, 0.8 pmol siRNA per well
Time to read-out: 72 h
Read-out: 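Luciferase light (ONE-Glo) measured on one replicate plate set and viability (CellTiter-Glo) on the other, scaled to a negative control siRNA, with robust z-scores and luciferase per cell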
Reading the numbers: total luciferase, z-score: higher = more reporter protein produced
Hit rule: 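Active when the median/MAD z-score for overall luciferase is greater than 3; a gene was taken forward for validation with new siRNAs if at least two of its three siRNAs passed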
Calls: active = raised luciferase; inactive = no rise
Here is one part, drawn at random, of about 59,000 reagents. Over the whole deposit, about 1,510 (2.6%) are marked active. 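Calls use total luciferase alone and ignore viability, so some active siRNAs may act by altering cell number.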 Entries without a mark were called inactive. The numbers tell different reagents against one gene apart. Not all columns of the deposit are shown.

POLR2MP1 (POLR2M pseudogene 1) #1 → total luciferase, z-score = 0.412
POLR2MP1 (POLR2M pseudogene 1) #2 → total luciferase, z-score = -0.641
POLR2MP1 (POLR2M pseudogene 1) #3 → total luciferase, z-score = -0.849
TDRD1 (tudor domain containing 1) #1 → total luciferase, z-score = 1.68
TDRD1 (tudor domain containing 1) #2 → total luciferase, z-score = -0.732
TDRD1 (tudor domain containing 1) #3 → total luciferase, z-score = 0.197
AKAP17A (A-kinase anchoring protein 17A) #1 → total luciferase, z-score = -0.385
AKAP17A (A-kinase anchoring protein 17A) #2 → total luciferase, z-score = 1.98
AKAP17A (A-kinase anchoring protein 17A) #3 → total luciferase, z-score = -1.56
ARHGAP27 (Rho GTPase activating protein 27) #1 → total luciferase, z-score = -0.726
ARHGAP27 (Rho GTPase activating protein 27) #2 → total luciferase, z-score = -0.44
ARHGAP27 (Rho GTPase activating protein 27) #3 → total luciferase, z-score = 0.945
ARHGAP27 (Rho GTPase activating protein 27) #4 → total luciferase, z-score = -0.962
ARHGAP27 (Rho GTPase activating protein 27) #5 → total luciferase, z-score = -0.411
ARHGAP27 (Rho GTPase activating protein 27) #6 → total luciferase, z-score = -2.38
SFXN1 (sideroflexin 1) #1 → total luciferase, z-score = 1.81
SFXN1 (sideroflexin 1) #2 → total luciferase, z-score = -0.879
SFXN1 (sideroflexin 1) #3 → total luciferase, z-score = 0.558
CNTN2 (contactin 2) #1 → total luciferase, z-score = -0.459
CNTN2 (contactin 2) #2 → total luciferase, z-score = -1.44
CNTN2 (contactin 2) #3 → total luciferase, z-score = -1.63
